The other results are listed elsewhere or left out. The main result of the screen is listed elsewhere. These columns were measured beside it and carry no call. Most of these compounds were active or inconclusive in the main read-out, so they are no random draw. Words in brackets tell the shape of the fitted curve; partial curves, single points and poor fits give uncertain potencies.
Test: qHTS Assay for Modulators of Lamin A Splicing
Details: HeLa LMNA splicing GFP/RFP minigene ratio, 48 h
Summary of the method: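 Read-out is the ratio of GFP to DsRed2 object intensity, acquired by 488 nm laser-scanning cytometry on HeLa lamin A-EGFP minigene reporter cells. Compound incubation 48 hrs at 37 °C in Opti-MEM with 2% FBS; DMSO 0.5% final.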

[1] = measured here: GFP splicing reporter channel
[2] = measured here: RFP viability control channel

CC(C)CCNC(=O)Nc1cc(C(=O)NCc2cccc(F)c2)ccc1N1CCCC1
AC50 [1]: 0.0282 µM [falling, full curve, poor fit]

O=c1c2ccccc2sc2nc(C3CCCCC3)n(Cc3ccco3)c(=O)c12
AC50 [2]: 35.5 µM [falling, single point]

CCOc1cc(S(=O)(=O)NCc2ccc3c(c2)OCO3)ccc1F
AC50 [2]: 31.6 µM [rising, single point]

CC(C)CC(=O)/C=C/n1c(=S)oc2ccccc21
AC50 [2]: 20 µM [rising, single point]

Cc1ccc(N=Nc2c(O)ccc3n[nH]nc23)cc1
AC50 [1]: 35.5 µM [falling, single point]
AC50 [2]: 35.5 µM [falling, partial curve, poor fit]

Oc1[nH]c2ccccc2c1C=Nc1ccc2c(c1)OCO2
AC50 [2]: 20 µM [rising, single point]

Cc1ccc(C)c(Cn2c(=O)cc(C)c3c(C)nn(C)c32)c1
AC50 [1]: 10 µM [falling, partial curve]
AC50 [2]: 15.8 µM [falling, single point]

COCCCNC(=O)/C=C1\Sc2ccccc2N(Cc2ccccc2F)C1=O
AC50 [1]: 15.8 µM [rising, single point]
AC50 [2]: 14.1 µM [rising, single point]

CCc1c(C)nc(SCC(=O)Nc2cccc(Br)c2)[nH]c1=O
AC50 [2]: 22.4 µM [rising, partial curve]

CC[n+]1c(/C=C/Nc2ccccc2)sc2ccccc21
AC50 [1]: 2.82 µM [rising, partial curve, poor fit]
AC50 [2]: 35.5 µM [rising, single point]

COc1ccc(NC(=O)/C=C\C(=O)N(c2ccc(C(C)C)cc2)C(C(=O)NCc2ccco2)c2ccc(F)cc2)cc1 (configuration not stated)
AC50 [2]: 14.1 µM [rising, partial curve]

O=C(Nc1ccc(Cl)cc1Cl)C1CCC(=O)N1Cc1ccccc1Cl (configuration not stated)
AC50 [2]: 10 µM [rising, partial curve]

Cc1cc(N2CCN(C)CC2)nc2ccc(NC(=O)c3ccc(Br)o3)cc12
AC50 [2]: 35.5 µM [rising, single point]

COc1ccc(N2CCN(C(=O)c3ccc(C)cc3Cl)CC2)cc1
AC50 [1]: 2.82 µM [rising, full curve]
AC50 [2]: 11.2 µM [rising, partial curve]

O=C1c2ccccc2C(=O)c2c1oc(C(F)(F)F)c2C(=O)c1ccccc1
AC50 [1]: 3.16 µM [falling, full curve]
AC50 [2]: 3.55 µM [falling, full curve]

Cc1nc2ccccc2c2nc(NC(=O)C(F)(F)F)nn12
AC50 [1]: 0.00501 µM [falling, full curve, poor fit]
AC50 [2]: 0.00316 µM [falling, full curve, poor fit]

CCc1cccc(C)c1NC(=S)NCc1ccc2[nH]c(C)cc2c1
AC50 [2]: 35.5 µM [rising, single point]

CS(=O)(=O)N(Cc1ccc(Cl)cc1)c1ccc(C(=O)NCC2CCCO2)cc1 (configuration not stated)
AC50 [1]: 3.98 µM [rising, partial curve]

CCCCn1c(-c2ccco2)n[nH]c1=S
AC50 [2]: 0.00708 µM [falling, full curve]

CCN1CCN(CCCNC(=O)c2ccc3nc(Cc4ccccc4)oc3c2)CC1
AC50 [1]: 4.47 µM [rising, partial curve]
AC50 [2]: 5.62 µM [rising, single point]

CCCC/C(O)=C1\C(=O)CC(C)(C)CC1=Nc1ccccc1OC
AC50 [2]: 5.01 µM [rising, partial curve]

CC(C)N(C(=O)CSc1nc2ccccc2n1Cc1ccc(F)cc1)C(C)C
AC50 [2]: 12.6 µM [rising, partial curve]

CC(C)NC(=S)N1CCN(c2ncccn2)CC1
AC50 [1]: 0.0398 µM [falling, full curve, poor fit]
AC50 [2]: 0.00501 µM [falling, full curve, poor fit]

CC(C)Cc1cc(C(=O)N2CCN(c3ccc(F)cc3)CC2)no1
AC50 [2]: 11.2 µM [rising, partial curve]

O=C(COc1ccc(Cl)cc1)N1CCN(S(=O)(=O)c2ccc(Cl)cc2)CC1
AC50 [1]: 11.2 µM [rising, single point]
AC50 [2]: 14.1 µM [rising, single point]

COc1ccccc1NS(=O)(=O)c1cccc(NC(=O)Nc2ccc(Cl)cc2)c1
AC50 [1]: 17.8 µM [falling, partial curve]
AC50 [2]: 31.6 µM [falling, partial curve]

O=c1c2c3c(sc2nc2n1CCC2)CCCCC3
AC50 [1]: 2 µM [rising, partial curve, poor fit]
AC50 [2]: 1.78 µM [rising, full curve]

CC(=O)SC1CC2=CC(=O)CC[C@]2(C)C2CC[C@@]3(C)[C@@H](CC[C@@]34CCC(=O)O4)C12 (some centres not stated)
AC50 [1]: 0.00447 µM [falling, full curve, poor fit]
AC50 [2]: 8.91 µM [falling, partial curve]

CC(=O)c1cc(NC(=O)c2ccc([N+](=O)[O-])cc2)c(=O)oc1C
AC50 [1]: 15.8 µM [falling, partial curve, poor fit]
AC50 [2]: 31.6 µM [rising, single point]

O=C(Nc1ccc(F)cc1)Nc1ccc(Cl)cn1
AC50 [1]: 0.891 µM [falling, partial curve, poor fit]
AC50 [2]: 35.5 µM [falling, single point]

COC(=O)Cc1ccc(NC(=S)NCCCN2CCOCC2)cc1
AC50 [2]: 0.0794 µM [falling, full curve, poor fit]

Cc1ccc(-n2c(SCC(=O)NCc3ccco3)nnc2-c2cccnc2)c(C)c1
AC50 [1]: 11.2 µM [rising, partial curve]
AC50 [2]: 31.6 µM [rising, single point]

CC(=O)c1sc(-c2ccccc2)cc1N
AC50 [1]: 11.2 µM [rising, partial curve]
AC50 [2]: 5.01 µM [rising, full curve]

O=C(N1CCCCC1)N1CCN(c2ccc(Cl)cc2)CC1
AC50 [2]: 12.6 µM [rising, single point]

COCCNC(=O)CSc1nc(-c2ccccc2C)nc2c1c(=O)n(C)c(=O)n2C
AC50 [2]: 35.5 µM [rising, single point]

Reference: PubChem BioAssay AID1487 (National Center for Advancing Translational Sciences (NCATS), 2009)
